Assay results: paper PMC11751453
Results are given in words; binding and its absence hold for the method and conditions named. In cells and extracts the contact can be indirect. Some binding calls cover weakened binding; strength is not graded here.

By UniProt entry, the sequences of proteins in these tests, tags left out. Residues count along the entry.
UniProt P19438, residues 30-455: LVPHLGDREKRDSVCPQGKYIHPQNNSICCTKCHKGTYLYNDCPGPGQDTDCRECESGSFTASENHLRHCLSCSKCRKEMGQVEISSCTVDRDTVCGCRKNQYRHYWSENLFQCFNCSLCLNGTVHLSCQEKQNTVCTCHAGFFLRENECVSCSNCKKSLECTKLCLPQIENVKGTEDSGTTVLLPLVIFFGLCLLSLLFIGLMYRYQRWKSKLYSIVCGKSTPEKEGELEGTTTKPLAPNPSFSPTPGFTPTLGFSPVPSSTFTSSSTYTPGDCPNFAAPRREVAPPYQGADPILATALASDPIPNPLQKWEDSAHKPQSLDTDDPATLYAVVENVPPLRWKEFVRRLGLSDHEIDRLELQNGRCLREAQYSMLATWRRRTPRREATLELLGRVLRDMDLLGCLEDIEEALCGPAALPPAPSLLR

Legend:
[1] = target: CD95 (Apo1/Fas) (human (endogenous in HCT116-PIK3CAmut)) (UniProt P25445); assay: co-IP; as a3, the parental HCT116-PIK3CAmut cells only (RIPK1 expressed)
[2] = target: TNFR1 (human (endogenous in HCT116-PIK3CAmut)) (UniProt P19438); assay: co-IP; TNFR1 signaling complex: HCT116-PIK3CAmut parental, TRAF2KO, RIPK1KO and TRAF2/RIPK1DKO cells stimulated with 1 µg/ml Fc-TNF for 10 min, lysed (30 mM Tris HCl pH 7.5, 120 mM NaCl, 1% Triton X-100, 10% glycerol), protein G agarose overnight at 4 °C, western blot of co-precipitated proteins
[3] = target: CD95 (Apo1/Fas) (human (endogenous in HCT116-PIK3CAmut)) (UniProt P25445); assay: co-IP; CD95 signaling complex (DISC): HCT116-PIK3CAmut parental, TRAF2KO, RIPK1KO and TRAF2/RIPK1DKO cells stimulated with 1 µg/ml Fc-CD95L for 90 min, lysed (30 mM Tris HCl pH 7.5, 120 mM NaCl, 1% Triton X-100, 10% glycerol), protein G agarose overnight at 4 °C, western blot of co-precipitated proteins
[4] = target: T1, CD95 (Apo1/Fas) (human (endogenous in HCT116-PIK3CAmut)), P25445; assay: as above; settings: remark: other sources report otherwise
T1 chain: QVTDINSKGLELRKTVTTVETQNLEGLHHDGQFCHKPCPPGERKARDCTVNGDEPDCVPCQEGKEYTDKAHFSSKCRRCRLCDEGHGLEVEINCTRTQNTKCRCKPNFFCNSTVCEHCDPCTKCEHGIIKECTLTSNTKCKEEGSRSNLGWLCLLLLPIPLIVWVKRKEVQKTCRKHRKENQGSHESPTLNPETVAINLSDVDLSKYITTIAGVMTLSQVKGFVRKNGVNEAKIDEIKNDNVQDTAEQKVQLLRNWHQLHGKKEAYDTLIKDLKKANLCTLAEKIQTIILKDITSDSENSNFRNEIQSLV

| Binder | binding [1] | binding [2] | binding [3] | binding [4] |
| --- | --- | --- | --- | --- |
| TRADD (protein, UniProt Q15628 1-312) MAAGQNGHEEWVGSAYLFVESSLDKVVLSDAYAHPQQKVAVYRALQAALAESGGSPDVLQMLKIHRSDPQLIVQLRFCGRQPCGRFLRAYREGALRAALQRSLAAALAQHSVPLQLELRAGAERLDALLADEERCLSCILAQQPDRLRDEELAELEDALRNLKCGSGARGGDGEVASAPLQPPVPSLSEVKPPPPPPPAQTFLFQGQPVVNRPLSLKDQQTFARSVGLKWRKVGRSLQRGCRALRDPALDSLAYEYEREGLYEQAFQLLRRFVQAEGRRATLQRLVEALEENELTSLAEDLLGLTDPNGGLA | binds weakly | binds | binds |  |
| Fas-associated death domain (FADD), Q13158 1-208 (protein) MDPFLVLLHSVSSSLSSSELTELKFLCLGRVGKRKLERVQSGLDLFSMLLEQNDLEPGHTELLRELLASLRRHDLLRRVDDFEAGAAAGAAPGEEDLCAAFNVICDNVGKDWRRLARQLKVSDTKIDSIEDRYPRNLTERVRESLRIWKNTEKENATVAHLVGALRSCQMNLVADLVQEVQQARDLQNRSGAMSPMSWNSDASTSEAS |  |  |  | binds |
| caspase-8, Q14790 1-479 (enzyme) MDFSRNLYDIGEQLDSEDLASLKFLSLDYIPQRKQEPIKDALMLFQRLQEKRMLEESNLSFLKELLFRINRLDLLITYLNTRKEEMERELQTPGRAQISAYRVMLYQISEEVSRSELRSFKFLLQEEISKCKLDDDMNLLDIFIEMEKRVILGEGKLDILKRVCAQINKSLLKIINDYEEFSKERSSSLEGSPDEFSNGEELCGVMTISDSPREQDSESQTLDKVYQMKSKPRGYCLIINNHNFAKAREKVPKLHSIRDRNGTHLDAGALTTTFEELHFEIKPHDDCTVEQIYEILKIYQLMDHSNMDCFICCILSHGDKGIIYGTDGQEAPIYELTSQFTGLKCPSLAGKPKVFFIQACQGDNYQKGIPVETDSEEQPYLEMDLSSPQTRYIPDEADFLLGMATVNNCVSYRNPAEGTWYIQSLCQSLRERCPRGDDILTILTEVNYEVSNKDDKKNMGKQMPQPTFTLRKKLVFPSD |  |  |  | binds |
